Results reported in PubChem BioAssay AID587 (National Center for Advancing Translational Sciences (NCATS), 2007).
Among all 59,000 compounds or so, about 35 (0.06%) were called active. Inconclusive means that the source gave no clear call. Such entries were picked first, then a sample of the others. No stated cut-off is given here; in the data, active means max dye-equivalent concentration above about 10 nM; inconclusive means between about 1.1 nM and that limit; inactive means weaker than that.

Assay: qHTS Assay for Spectroscopic Profiling in Texas Red Spectral Region
Settings: Compound fluorescence, Texas Red channel, 547/618 nm; hits give high values
Method in brief: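 Spectral interference profiling: each compound concentration's relative fluorescence, read with a 547 nm excitation and 618 nm emission filter pair, was normalized to a per-plate Texas Red standard curve.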

SMILES | max dye-equivalent concentration | outcome
CN(C)CC[C@H](c1ccc(Cl)cc1)c1ccccn1 | inconclusive: 1.1 nM | inactive
CC1(NC[C@@H](O)COc2cccc3[nH]ccc23)CCC(C(C)(C)NC(=O)CBr)CC1 (stereo not given in full) | inactive | 
Nc1nonc1C(=O)NCCN=Cc1cc(Cc2ccccc2)cc(Br)c1O | inactive | 
Cc1nn(C)cc1CNC(=O)C1C2CCC(O2)C1C(=O)O (stereo not given) | inconclusive: 1.3 nM | 
CCOC(=O)C1CCCN(CCC(=O)Nc2c(C(=O)OC)[nH]c3cc(OC)ccc23)C1 (stereo not given) | inconclusive: 1.6 nM | 
CCc1ccc2[nH]c(=O)c(CN(CCCN3CCOCC3)C(=O)Nc3ccccc3)cc2c1 | inconclusive: 1.2 nM | 
COc1ccc(-c2nc(NC(=O)CSc3nnc(C)s3)ns2)cc1 | inconclusive: 2.2 nM | 
CCCNC(=O)NC(C(=O)OC)C12CC3CC(CC(C3)C1)C2 (stereo not given) | inconclusive: 1.2 nM | 
Oc1ccc(-c2nnc(SCC3CCCCC3)o2)cc1 | inconclusive: 1.9 nM | 
CS(=O)(=O)Nc1ccc(N2CCCCC2)c(Cl)c1 | inconclusive: 1.9 nM | 
Cc1nn(-c2ccccc2)c(Cl)c1C1C(C#N)=C(N)OC2=C1C(=O)CCC2 (stereo not given) | inactive | 
Cc1cccc(-n2nc3c(c2NC(=O)c2ccc(S(=O)(=O)N4CCOCC4)cc2)CSC3)c1C | inconclusive: 1.1 nM | 
O=C(Cc1ccc(S(=O)(=O)N2CCOCC2)s1)NCC1CCCCC1 | inconclusive: 1.8 nM | 
COc1ccc(-c2ccc(=O)n(Cc3cc(=O)n4ccccc4n3)n2)cc1 | inconclusive: 1.5 nM | 
CCc1cc2c3c(c(=O)oc2cc1O)CCCC3 | inconclusive: 1.4 nM | 
CCOc1ccc2nc(NC(=O)c3ccc(S(=O)(=O)N4CCOCC4)cc3)sc2c1 | inconclusive: 1.2 nM | 
CC(C)Cc1ccc([C@H](C)C(=O)O)cc1 | inconclusive: 1.2 nM | 
Cc1nnc(SCc2ccccc2)n1N | inactive | 
COc1ccc(CCNC(=O)CN2CCCc3ccccc32)cc1OC | inconclusive: 3.2 nM | 
N[C@H]1[C@@H](C(=O)O)[C@H]2C=C[C@H]1C2 | inactive | 
COc1ccc(CNc2nc(-c3cccnc3)nc3ccccc23)c(OC)c1 | inconclusive: 1.3 nM | 
O=S(=O)(CCc1ccccc1)/N=C/c1cccs1 | inconclusive: 1.2 nM | 

Structures from the list above containing a thiophene ring, fused or not, in the order listed:
SMILES | max dye-equivalent concentration | outcome
O=C(Cc1ccc(S(=O)(=O)N2CCOCC2)s1)NCC1CCCCC1 | inconclusive: 1.8 nM | 
O=S(=O)(CCc1ccccc1)/N=C/c1cccs1 | inconclusive: 1.2 nM | 

Going on with the list:

SMILES | max dye-equivalent concentration | outcome
COc1ccc(Cc2nnc(SCC(=O)N3CCN(c4ccccc4)CC3)o2)cc1 | inconclusive: 1.3 nM | 
COc1cc2c3cc1Oc1cc(ccc1O)C[C@@H]1c4c(cc(OC)c(O)c4Oc4ccc(cc4)C[C@H]3[N+](C)(C)CC2)CC[N+]1(C)C | inactive | 
CC1(C)Oc2ccc(C(=O)N3CCCCC3)cc2N(CC(=O)NCc2ccccc2)C1=O | inconclusive: 1.8 nM | 
Cc1nnc(SCCn2c(N(C)Cc3ccccc3)nc3c2c(=O)n(C)c(=O)n3C)s1 | inconclusive: 1.2 nM | 
CCOC(=O)N1CCN(C(=O)CCCN2C(=O)CSc3nc(C)cc(C)c32)CC1 | inconclusive: 1.1 nM | 
O=C(CSc1nnnn1Cc1ccccc1)N1CCN(c2ccccc2)CC1 | inconclusive: 1.1 nM | 
CN1C=C(C(F)(F)F)C=C/C1=C(\C#N)c1nnc2n1CCCCC2 | inconclusive: 1.2 nM | 
COCCn1c(=O)c(C)nc2cnc(Nc3cccc(OC)c3)nc21 | inactive | 
CCn1c(SCC(N)=O)nc2c1c(=O)n(C)c(=O)n2C | inconclusive: 1.4 nM | 
O=c1[nH]c2cc3c(cc2cc1CN(Cc1nnnn1CC1CCCO1)C1CCCC1)OCO3 (stereo not given) | inconclusive: 1.2 nM | 
C[C@@H](C(=O)O)/C(=C/c1ccc2c(c1)OCO2)C(=O)O | inactive | 
COc1ccc(OC)c(NC(=O)CSc2nnc(CNc3ccc(C)cc3C)o2)c1 | inconclusive: 2 nM | 
COCCn1c(COc2ccc(Cl)cc2)nnc1SCC(N)=O | inconclusive: 1.5 nM | 
CC(C)n1c(N2CCN(C(=O)NCc3ccccc3)CC2)nc2ccccc21 | inconclusive: 1.3 nM | 
Cc1ccc(S(=O)(=O)N2CCC(C(=O)NCCCN3CCCCCC3)CC2)cc1 | inconclusive: 1.2 nM | 
CCN1CCCC(OC(=O)Nc2ccccc2)C1 (stereo not given) | inconclusive: 1.2 nM | 
COCCN1C(=O)C(=O)/C(=C(/O)c2ccc3c(c2)OCCO3)C1c1ccc(C(=O)OC)cc1 (stereo not given) | inconclusive: 1.1 nM | 
O=C(c1cc(-c2cccs2)on1)N1CCN(c2ccc(F)cc2)CC1 | inconclusive: 1.5 nM | 
COc1ccc(NC(=O)c2ccc(S(=O)(=O)N3CCOCC3)cc2)c(OC)c1 | inconclusive: 2 nM | 
COc1ccc(S(=O)(=O)NCCCCNS(=O)(=O)c2ccc(OC)cc2)cc1 | inconclusive: 1.6 nM | 
O=C(CCCn1c(=S)[nH]c2cc3c(cc2c1=O)OCO3)N1CCc2ccccc2C1 | inconclusive: 1.6 nM | 
Cn1c(=O)c2cc(S(=O)(=O)Nc3ccc4c(c3)OCO4)ccc2n(C)c1=O | inconclusive: 1.1 nM | 
